Consider 1 sequence from paper PMC8450094.

Holding throughout (assay): fluorescence polarisation
The target in data set [1] is T1, SNM1B D275A (Homo sapiens) (UniProt Q9H816).
T1 sequence (looked up): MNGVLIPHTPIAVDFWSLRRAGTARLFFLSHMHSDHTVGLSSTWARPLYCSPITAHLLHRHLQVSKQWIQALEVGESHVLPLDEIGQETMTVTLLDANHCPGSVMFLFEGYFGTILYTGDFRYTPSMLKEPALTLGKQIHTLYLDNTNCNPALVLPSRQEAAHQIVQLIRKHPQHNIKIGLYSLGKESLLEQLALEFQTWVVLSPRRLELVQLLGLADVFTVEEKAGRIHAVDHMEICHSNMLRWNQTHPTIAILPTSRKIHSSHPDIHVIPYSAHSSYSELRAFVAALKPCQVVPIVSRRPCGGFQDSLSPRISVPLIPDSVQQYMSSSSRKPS
To be noted: apparent, curves do not saturate; 5' phosphate on strand 1; 5' OH on strand 2; FP: 20 mM HEPES pH 7.5, 50 mM KCl, 0.5 mM TCEP, room temperature, 5 min, DNA 25 nM (Methods) or 50 nM (legends; 10 nM in Suppl. Fig. 14C); recombinant protein; residues 1-335; protein details: C-terminal His10-FLAG, TEV cleavage stated; label: 3' FITC on strand 1.

Data set [2] addresses T2, SNM1B K186A (Homo sapiens) (UniProt Q9H816).
T2 sequence (looked up): T1 sequence (looked up) with K186A, A275D
The following applies: apparent, curves do not saturate; 5' phosphate on strand 1; 5' OH on strand 2; FP: 20 mM HEPES pH 7.5, 50 mM KCl, 0.5 mM TCEP, room temperature, 5 min, DNA 25 nM (Methods) or 50 nM (legends; 10 nM in Suppl. Fig. 14C); recombinant protein; residues 1-335; protein details: C-terminal His10-FLAG, TEV cleavage stated; label: 3' FITC on strand 1.

Data set [3] concerns the target T3, SNM1B S183A (Homo sapiens) (UniProt Q9H816).
T3 sequence (looked up): T1 sequence (looked up) with S183A, A275D
The following applies: 5' phosphate on strand 1; 5' OH on strand 2; FP: 20 mM HEPES pH 7.5, 50 mM KCl, 0.5 mM TCEP, room temperature, 5 min, DNA 25 nM (Methods) or 50 nM (legends; 10 nM in Suppl. Fig. 14C); recombinant protein; residues 1-335; protein details: C-terminal His10-FLAG, TEV cleavage stated; label: 3' FITC on strand 1.

Data set [4] addresses T4, SNM1B S34A (Homo sapiens) (UniProt Q9H816).
T4 sequence (looked up): T1 sequence (looked up) with S34A, A275D
The following applies: markedly reduced; 5' phosphate on strand 1; 5' OH on strand 2; FP: 20 mM HEPES pH 7.5, 50 mM KCl, 0.5 mM TCEP, room temperature, 5 min, DNA 25 nM (Methods) or 50 nM (legends; 10 nM in Suppl. Fig. 14C); recombinant protein; residues 1-335; protein details: C-terminal His10-FLAG, TEV cleavage stated; label: 3' FITC on strand 1.

Data set [5] concerns the target T5, SNM1B/Apollo WT (Homo sapiens) (UniProt Q9H816).
T5 sequence (looked up): T1 sequence (looked up) with A275D
To be noted: apparent, curves do not saturate; 5' phosphate on strand 1; 5' OH on strand 2; FP: 20 mM HEPES pH 7.5, 50 mM KCl, 0.5 mM TCEP, room temperature, 5 min, DNA 25 nM (Methods) or 50 nM (legends; 10 nM in Suppl. Fig. 14C); recombinant protein; residues 1-335; label: 3' FITC on strand 1.

Substitutions are numbered along the chain they refer to. The exact form of at least one protein or probe is not confirmed. For some assays here: Weaker means in comparison with the reference protein, sequence or condition of that experiment. Where a protein sequence is shown, tags need not be part of it. For some assays here: Whether high values mean tight binding is not given here for every scale.

For the sequence “ATAAATATTTTTTATTAATAATAGATCACCTTTCTTTCTCTTCTCCCCTT / ATTATTAATAAAAAATATTTAT [3' overhang DNA (oligo 20 / oligo 4)]”, the Kd in data set [1] came to 3280 nM; in data set [2], 2730 nM; in data set [5] it was 1670 nM. The binding signal (fold increase of KDapp vs WT) in data set [3] amounted to 3. Besides, the binding result in data set [4] is reported as “binds more weakly”.
